Substitutions are numbered along the chain they refer to. No constants are given. Whether binding was seen depends on the method and setting. Some binding calls cover weakened binding; strength is not graded here. For some of these results: Sequences can lack the tags named with a protein. Values belong to the binder of their own block, whether it stands above or below them.
Key:
[1] = molecular target: FLAG-tagged recombinant human APRIL (human) (UniProt O75888); assay: kinetic exclusion binding assay (KINEXA 3200), huAPRIL in solution
[2] = molecular target: FLAG-tagged cynomolgous APRIL (cynomolgus monkey); assay: SPR vs BAv8-10
[3] = molecular target: FLAG-tagged human BAFF (human) (UniProt Q9Y275); assay: SPR vs BAv8-10
[4] = molecular target: human APRIL (Examples 21-23) (human) (UniProt O75888); assay: SPR (Carterra LSA)
[5] = molecular target: human BAFF (Examples 21-23) (human) (UniProt Q9Y275); assay: SPR (Carterra LSA)
[6] = molecular target: murine APRIL (Examples 22-23) (mouse) (UniProt Q9D777); assay: SPR (Carterra LSA)
[7] = molecular target: murine BAFF (Examples 22-23) (mouse) (UniProt Q9WU72); assay: SPR (Carterra LSA)
[8] = molecular target: human BAFF (Examples 21-23) (human) (UniProt Q9Y275); assay: colorimetric ELISA, inhibition curves
[9] = molecular target: human BAFF (Examples 21-23) (human) (UniProt Q9Y275); assay: colorimetric ELISA, inhibition curve (450 nm against LogM of the fusion protein) for human BAFF; the partner on the plate not given

Amino acid sequences for entries named in this document (tags omitted). A change or cut given only in a name is not applied to a line headed by its entry. Residues count along the entry.
UniProt O75888: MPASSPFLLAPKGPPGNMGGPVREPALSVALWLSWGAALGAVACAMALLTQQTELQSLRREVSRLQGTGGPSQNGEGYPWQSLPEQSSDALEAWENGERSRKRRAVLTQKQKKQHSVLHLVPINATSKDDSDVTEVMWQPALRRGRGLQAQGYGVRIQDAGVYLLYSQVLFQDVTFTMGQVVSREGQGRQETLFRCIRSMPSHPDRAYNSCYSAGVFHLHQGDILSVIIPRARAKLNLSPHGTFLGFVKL
UniProt Q9Y275: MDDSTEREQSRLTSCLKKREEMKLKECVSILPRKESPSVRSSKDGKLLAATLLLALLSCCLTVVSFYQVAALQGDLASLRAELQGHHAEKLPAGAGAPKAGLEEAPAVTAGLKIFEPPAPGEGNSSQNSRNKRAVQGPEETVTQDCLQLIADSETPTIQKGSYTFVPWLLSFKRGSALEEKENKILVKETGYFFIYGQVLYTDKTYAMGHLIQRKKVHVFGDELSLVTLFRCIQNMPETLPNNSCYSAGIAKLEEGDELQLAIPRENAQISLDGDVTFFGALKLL
UniProt Q9D777, residues 96-241: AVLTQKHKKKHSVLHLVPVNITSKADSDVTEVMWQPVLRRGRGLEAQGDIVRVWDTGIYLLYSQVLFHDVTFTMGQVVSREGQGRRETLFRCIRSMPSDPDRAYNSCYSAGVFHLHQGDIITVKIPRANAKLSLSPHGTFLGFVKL
UniProt Q9WU72, residues 127-309: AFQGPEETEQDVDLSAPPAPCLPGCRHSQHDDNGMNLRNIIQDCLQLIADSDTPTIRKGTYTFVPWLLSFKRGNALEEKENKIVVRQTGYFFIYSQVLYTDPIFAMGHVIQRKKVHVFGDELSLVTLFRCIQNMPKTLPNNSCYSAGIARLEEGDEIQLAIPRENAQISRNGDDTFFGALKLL

B1: BAv9-1-5L-pIg23 (Fc fusion, human, not shown: a dimerising Fc or GST)
chain: AGQCSQNEYFDHLIRACIPCQLRCSSNTPPLTCQRYCNAGVTNSVGGGGS
binding [1]: binds

B5: BAv9-1 CRD-IgG4 Fc (Fc fusion)
chain: AGQCSQNEYFDHLIRACIPCQLRCSSNTPPLTCQRYCNAGVTNSVGGGGSAESKYGPPCPPCPAPEAAGGPSVFLFPPKPKDTLMISRTPEVTCVVVDVSQEDPEVQFNWYVDGVEVHNAKTKPREEQFNSTYRVVSVLTVLHQDWLNGKEYKCKVSNKGLPSSIEKTISKAKGQPREPQVYTLPPSQEEMTKNQVSLTCLVKGFYPSDIAVEWESNGQPENNYKTTPPVLDSDGSFFLYSRLTVDKSRWQEGNVFSCSVMHEALHNHYTQKSLSLSPGK
binding [4]: binds
binding [5]: binds
binding [6]: binds
binding [7]: binds
binding [8]: binds
binding [9]: binds

The next lines start with the values.

binding [2]: binds
binding [3]: binds
B2: BAv74-Ig (Fc fusion, not shown: a dimerising Fc or GST)
chain: B1 chain with I18T, L22V, G46K, G48T, G49N, S50A

binding [2]: binds
binding [3]: binds
B3: BAv71-Ig (Fc fusion, not shown: a dimerising Fc or GST)
chain: B1 chain with A16I, L22V, G46K, G48T, G49N, S50A

binding [2]: binds
binding [3]: binds
B4: BAv75-Ig (Fc fusion, not shown: a dimerising Fc or GST)
chain: AGQCSQNEYFDHLVRACTPCQVRCSSNTPPLTCQRYCNAGVTNSVKGTNA
